{
  "sequences": {"note": "Protein sequences, listed by entry. Tags and fused reporters are not part of them.", "UniProt P08183, whole entry, looked up": "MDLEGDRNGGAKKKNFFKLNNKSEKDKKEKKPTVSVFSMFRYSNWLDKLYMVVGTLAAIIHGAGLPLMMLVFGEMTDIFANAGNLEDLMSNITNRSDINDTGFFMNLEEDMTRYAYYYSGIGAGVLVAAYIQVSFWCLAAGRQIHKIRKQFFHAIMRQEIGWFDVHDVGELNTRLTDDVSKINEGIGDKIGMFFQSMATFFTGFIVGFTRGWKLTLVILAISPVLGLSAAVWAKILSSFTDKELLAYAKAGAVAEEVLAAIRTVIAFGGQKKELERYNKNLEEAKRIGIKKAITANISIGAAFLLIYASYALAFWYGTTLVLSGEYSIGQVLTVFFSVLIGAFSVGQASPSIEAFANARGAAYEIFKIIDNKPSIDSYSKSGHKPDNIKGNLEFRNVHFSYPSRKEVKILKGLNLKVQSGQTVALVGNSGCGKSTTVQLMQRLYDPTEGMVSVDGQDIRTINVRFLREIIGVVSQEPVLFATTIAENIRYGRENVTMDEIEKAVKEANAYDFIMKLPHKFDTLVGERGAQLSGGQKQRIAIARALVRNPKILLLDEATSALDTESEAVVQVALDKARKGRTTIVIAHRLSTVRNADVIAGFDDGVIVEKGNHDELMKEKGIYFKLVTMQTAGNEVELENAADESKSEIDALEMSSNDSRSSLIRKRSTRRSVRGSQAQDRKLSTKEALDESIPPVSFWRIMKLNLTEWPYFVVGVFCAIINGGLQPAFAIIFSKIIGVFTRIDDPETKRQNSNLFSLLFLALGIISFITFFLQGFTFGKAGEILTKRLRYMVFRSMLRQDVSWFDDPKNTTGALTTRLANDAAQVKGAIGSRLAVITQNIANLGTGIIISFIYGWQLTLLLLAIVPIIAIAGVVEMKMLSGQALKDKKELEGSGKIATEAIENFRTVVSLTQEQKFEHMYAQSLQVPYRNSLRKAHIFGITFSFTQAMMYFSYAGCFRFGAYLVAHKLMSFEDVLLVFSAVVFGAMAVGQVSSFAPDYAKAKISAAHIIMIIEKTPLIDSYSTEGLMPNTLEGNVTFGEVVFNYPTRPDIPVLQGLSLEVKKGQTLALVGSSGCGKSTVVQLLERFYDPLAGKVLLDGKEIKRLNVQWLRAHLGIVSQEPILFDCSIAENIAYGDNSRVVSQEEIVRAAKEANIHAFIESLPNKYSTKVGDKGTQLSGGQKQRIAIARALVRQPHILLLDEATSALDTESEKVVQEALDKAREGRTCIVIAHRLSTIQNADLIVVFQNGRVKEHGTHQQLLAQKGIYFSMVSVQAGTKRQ"},
  "source": "PubChem BioAssay",
  "key": {"[1]": {"experiment": "growth inhibition of DIPG glioma cells, dose response, cell-based, SU-DIPG-XVII, MIPE5.0, CellTiter-Glo, qHTS (AID 1347060);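 as to AC50: cells exposed to compound for 48 hours before viability readout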", "conditions": "SU-DIPG-XVII viability, CellTiter-Glo ATP luminescence"}, "[2]": {"experiment": "growth inhibition of DIPG glioma cells, dose response, cell-based, JHH-DIPG-1, MIPE4.0, CellTiter-Glo, qHTS (AID 1347062; cut-off not given, nearly all actives have AC50 up to about 27 µM;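 also: cells exposed to compound for two days before readout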)", "conditions": "JHH-DIPG-1 viability, CellTiter-Glo ATP luminescence"}, "[3]": {"experiment": "growth inhibition of DIPG glioma cells, dose response, cell-based, SU-DIPG-IV, MIPE4.0, CellTiter-Glo, qHTS (AID 1347063; cut-off not given, nearly all actives have AC50 up to about 30 µM;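 also: compound exposure lasted 48 hours before the viability readout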)", "conditions": "SU-DIPG-IV viability, CellTiter-Glo ATP luminescence"}, "[4]": {"experiment": "growth inhibition of DIPG glioma cells, dose response, cell-based, SU-DIPG-XIII, MIPE5.0, CellTiter-Glo, qHTS (AID 1347064; cut-off not given, nearly all actives have AC50 up to about 23 µM;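 as to AC50: cells exposed to compound for 48 hours before the viability read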)", "conditions": "SU-DIPG-XIII viability, CellTiter-Glo ATP luminescence"}, "[5]": {"experiment": "viability loss in pontine glioma line – cell-based, SU-DIPG-XXV, MIPE5.0, CellTiter-Glo, qHTS, dose response (AID 1347065);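 also: cells exposed to compound for 48 hours before ATP readout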", "conditions": "CellTiter-Glo ATP luminescence"}, "[6]": {"experiment": "SU-DIPG-VI glioma cell viability, MIPE4.0 library, CellTiter-Glo luminescence, qHTS (AID 1347066; cut-off not given, nearly all actives have AC50 up to about 30 µM;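 also: cells exposed to compound for 48 hours before readout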)", "conditions": "CellTiter-Glo ATP luminescence"}, "[7]": {"experiment": "JHH-DIPG-1 glioma cell viability, MIPE5.0 library, CellTiter-Glo luminescence, qHTS (AID 1347067);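 also: cells exposed to compound for 48 hours before readout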", "conditions": "JHH-DIPG-1 glioma viability, CellTiter-Glo ATP luminescence"}, "[8]": {"experiment": "SU-DIPG-XXV glioma cell viability, MIPE5.0 library, qHTS (AID 1347068; cut-off not given, nearly all actives have IC50 up to about 30 µM;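 as to IC50: cells exposed to compound for 48 hours before viability readout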)"}, "[9]": {"biological_target": "ATP-dependent translocase ABCB1 (Homo sapiens) (UniProt P08183)", "experiment": "MDR1 (ABCB1) efflux transporter inhibition, cell-based (AID 377; in the data active = fluorescence slope change above about 50%; inconclusive = mostly about 31% to 49%)", "conditions": "MDR1-expressing cells, fluorescent substrate accumulation slope; active compounds read high; concentration not given here"}, "[10]": {"experiment": "growth inhibition of DIPG glioma cells, dose response, cell-based, SU-DIPG-XIII, MIPE4.0, CellTiter-Glo, qHTS (AID 1347061; cut-off not given, nearly all actives have AC50 up to about 37 µM;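 also: cells exposed to compound for 48 hours before readout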)", "conditions": "SU-DIPG-XIII viability, CellTiter-Glo ATP luminescence"}},
  "note": "The shares of active, inactive and inconclusive entries below differ from those in the screen. For some assays here: A potency beside an inconclusive call is a rough fit, not a confirmed value. The source made the active and inactive calls. Unless noted, the limit is not given here; nearly all actives have AC50 up to about 26 µM.",
  "data": [
    {"compound": "CC1(N2CCC(n3c([C@@H]4CCCNC4)nc4ccccc43)CC2)CCCCCCC1", "values": [
      {"measurement": "AC50", "setting": "[1]", "value": "inconclusive: 18.6 µM [cytotoxic]"},
      {"measurement": "AC50", "setting": "[2]", "value": "active: 14.8 µM"},
      {"measurement": "AC50", "setting": "[3]", "value": "inconclusive: 33.2 µM [cytotoxic]"},
      {"measurement": "AC50", "setting": "[4]", "value": "inconclusive: 37.2 µM [cytotoxic]"},
      {"measurement": "AC50", "setting": "[5]", "value": "inconclusive: 18.6 µM [cytotoxic]"},
      {"measurement": "AC50", "setting": "[6]", "value": "inconclusive: 18.7 µM [cytotoxic]"},
      {"measurement": "AC50", "setting": "[7]", "value": "inconclusive: 29.5 µM [cytotoxic]"},
      {"measurement": "IC50", "setting": "[8]", "value": "active: 20.9 µM"}
    ]},
    {"compound": "NCC1(CC(=O)O)CCCCC1", "values": [
      {"measurement": "fluorescence slope change", "setting": "[9]", "value": "inactive: 23.2%"},
      {"measurement": "outcome", "setting": "[1]", "value": "inactive"},
      {"measurement": "outcome", "setting": "[10]", "value": "inactive"},
      {"measurement": "outcome", "setting": "[4]", "value": "inactive"},
      {"measurement": "outcome", "setting": "[5]", "value": "inactive"},
      {"measurement": "AC50", "setting": "[7]", "value": "inconclusive: 0.00105 µM [cytotoxic]"},
      {"measurement": "outcome", "setting": "[8]", "value": "inactive"}
    ]},
    {"compound": "Cn1c(CCCCCCC(=O)NO)nc2cc(N(CCCl)CCCl)ccc21", "values": [
      {"measurement": "AC50", "setting": "[1]", "value": "active: 9.34 µM"},
      {"measurement": "AC50", "setting": "[4]", "value": "inconclusive: 7.42 µM [cytotoxic]"},
      {"measurement": "AC50", "setting": "[5]", "value": "inconclusive: 11.8 µM [cytotoxic]"},
      {"measurement": "outcome", "setting": "[8]", "value": "inactive"}
    ]},
    {"compound": "Cc1c(N)nc([C@H](CC(N)=O)NC[C@@H](N)C(N)=O)nc1C(=O)N[C@H](C(=O)N[C@@H](C)[C@H](O)[C@@H](C)C(=O)N[C@@H](C(=O)NCCc1nc(-c2nc(C(=O)NCCC[S+](C)C)cs2)cs1)[C@@H](C)O)C(O[C@H]1O[C@H](CO)[C@H](O)[C@@H](O)[C@H]1O[C@H]1O[C@H](CO)[C@@H](O)[C@H](OC(N)=O)[C@@H]1O)c1cnc[nH]1", "note": "(stereo partly specified)", "values": [
      {"measurement": "AC50", "setting": "[1]", "value": "inconclusive: 7.23 µM [cytotoxic]"},
      {"measurement": "outcome", "setting": "[10]", "value": "inactive"},
      {"measurement": "AC50", "setting": "[5]", "value": "inconclusive: 0.000645 µM [cytotoxic]"}
    ]},
    {"compound": "CC(=O)N1N=C(c2ccc(N)cc2)c2cc3c(cc2C[C@H]1C)OCO3", "values": [
      {"measurement": "AC50", "setting": "[1]", "value": "inconclusive: 14.8 µM [cytotoxic]"},
      {"measurement": "outcome", "setting": "[4]", "value": "inactive"},
      {"measurement": "outcome", "setting": "[5]", "value": "inactive"},
      {"measurement": "outcome", "setting": "[7]", "value": "inactive"}
    ]}
  ]
}
